Measurements reported in PubChem BioAssay AID504786 (Drosophila RNAi Screening Center, 2011).

Aim: 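Positive regulators of HIF-driven reporter output in Drosophila cells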 (primary screen)
System: Drosophila S2 cells with a stable HIF luciferase reporter
Reagent: long dsRNA against Drosophila genes, about 0.2 µg dsRNA per well of a 384-well plate
Duration: three days of knock-down, then 20 h of DFO before reading
Challenge: desferrioxamine (DFO) at 100 µM, an iron chelator that mimics hypoxia, for 20 h
Measured: 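Firefly luciferase driven by the mouse ldh-a hypoxia-response element, measured after 20 h of 100 µM DFO; z-scores per plate, higher means more signal lost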
Reading the numbers: z-score: higher = stronger loss of HIF reporter signal
In all, the deposit lists about 21,000 reagents; below is a random part of those that have a named target and a result. 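Primary screen; positive scores mean lost reporter signal, so the sign may be inverted from the usual convention.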 Further read-outs or replicates are left out here.

Trx2 (GeneID 34281) [DRSC03622] → z-score, replicate 1: -0.3
CG5084 (GeneID 37051) [DRSC06913] → z-score, replicate 1: 0
COX7C (GeneID 50246) [DRSC06831] → z-score, replicate 1: 0.6
rictor (GeneID 32919) [DRSC20071] → z-score, replicate 1: -0.4
DCTN6-p27 (GeneID 35195) [DRSC02609] → z-score, replicate 1: -0.3
CG32241 (GeneID 317934) [DRSC08100] → z-score, replicate 1: -0.4
GluRIIC (GeneID 33275) [DRSC00642] → z-score, replicate 1: -0.3
DEF8 (GeneID 39381) [DRSC09840] → z-score, replicate 1: -0.2
B52 (GeneID 41670) [DRSC14121] → z-score, replicate 1: -0.3
CG32452 (GeneID 318035) [DRSC11581] → z-score, replicate 1: -0.1
CG17841 (GeneID 31965) [DRSC17737] → z-score, replicate 1: -0.4
toy (GeneID 43833) [DRSC17222] → z-score, replicate 1: -0.3
CG3355 (GeneID 33667) [DRSC00598] → z-score, replicate 1: 0
CG13926 (GeneID 38192) [DRSC08395] → z-score, replicate 1: -0.2
MED18 (GeneID 31140) [DRSC18549] → z-score, replicate 1: -0.4
CG3777 (GeneID 30979) [DRSC18489] → z-score, replicate 1: -0.7
t-Grip84 (GeneID 38852) [DRSC10904] → z-score, replicate 1: -0.2
CG31650 (GeneID 326150) [DRSC03140] → z-score, replicate 1: -0.3
wa-cup (GeneID 40892) [DRSC12511] → z-score, replicate 1: -0.4
kay (GeneID 3772082) [DRSC13962] → z-score, replicate 1: -0.2
kay (GeneID 3772082) [DRSC15048] → z-score, replicate 1: -0.6
kay (GeneID 3772082) [DRSC16977] → z-score, replicate 1: -0.2
GatB (GeneID 42861) [DRSC15807] → z-score, replicate 1: 0.3
geko (GeneID 50263) [DRSC10044] → z-score, replicate 1: -0.4
geko (GeneID 50263) [DRSC10045] → z-score, replicate 1: -0.3
Arpc4 (GeneID 33864) [DRSC02917] → z-score, replicate 1: 0.5
CG8006 (GeneID 38920) [DRSC10949] → z-score, replicate 1: -0.1
CG34435 (GeneID 31471) [DRSC18086] → z-score, replicate 1: -0.2
Phax (GeneID 35926) [DRSC07066] → z-score, replicate 1: -0.3
CG17994 (GeneID 35550) [DRSC04877] → z-score, replicate 1: -0.2
Prdm13 (GeneID 38713) [DRSC09970] → z-score, replicate 1: -0.3
CG10055 (GeneID 40862) [DRSC12503] → z-score, replicate 1: 0
eEF5 (GeneID 37846) [DRSC04681] → z-score, replicate 1: 4.8
CG3701 (retired record) (GeneID 37568) [DRSC04408] → z-score, replicate 1: -0.4
CG3701 (retired record) (GeneID 37568) [DRSC04409] → z-score, replicate 1: -0.1
CkIIbeta (GeneID 32132) [DRSC20230] → z-score, replicate 1: 0.8
Osi1 (GeneID 40752) [DRSC12271] → z-score, replicate 1: -0.2
CG1575 (GeneID 31731) [DRSC18069] → z-score, replicate 1: -0.3
CG33648 (GeneID 3772188) [DRSC01387] → z-score, replicate 1: -0.3
CG30034 (retired record) (GeneID 246407) [DRSC05288] → z-score, replicate 1: -0.2
